Results taken from the supplement of paper PMC10689618.
Some of the results follow. Repeats are few or missing, and single values can be far off.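 Primary human fetal astrocytes engulfed labelled rat cortical synaptosomes, measured as a red/green ratio corrected for calcein live-cell signal and scaled to the plate median. Toxicity meant calcein falling over 30%; decreased phagocytosis meant below 70% of median above 5 µM.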

Columns and labels:
Human fetal astrocytes [1] = experiment: loss of total cells relative to no-compound high-control median (toxicity); higher = more toxic (fewer cells); details: 24 h
Human fetal astrocytes [2] = experiment: synaptosome phagocytosis (pHrodo/calcein intensity ratio) relative to plate median of data wells; higher = more phagocytosis; details: 24 h

SMILES	loss of total cells (Human fetal astrocytes [1]; 1.39 µM) [%]	loss of total cells (Human fetal astrocytes [1]; 2.78 µM) [%]	loss of total cells (Human fetal astrocytes [1]; 5.56 µM) [%]	loss of total cells (Human fetal astrocytes [1]; 11.11 µM) [%]	loss of total cells (Human fetal astrocytes [1]; 22.22 µM) [%]	synaptosome phagocytosis (Human fetal astrocytes [2]; 1.39 µM) [%]	synaptosome phagocytosis (Human fetal astrocytes [2]; 2.78 µM) [%]	synaptosome phagocytosis (Human fetal astrocytes [2]; 5.56 µM) [%]	synaptosome phagocytosis (Human fetal astrocytes [2]; 11.11 µM) [%]	synaptosome phagocytosis (Human fetal astrocytes [2]; 22.22 µM) [%]
CC(C)=CCC[C@]1(C)C=Cc2c(O)c3c(c(CC=C(C)C)c2O1)O[C@]12C(=C[C@@H]4C[C@H]1C(C)(C)O[C@@]2(C/C=C(/C)C(N)=O)C4=O)C3=O	-22.1	-0.7	31.3	61.9	55.2	75.1	56	78.2	28.1	31.2
COP(=O)(OC)OC=C(Cl)Cl	-4.1	18.6	-1.5	-17.2	11.9	109	107	124	166	110
C[C@]12CCC(=O)C[C@@H]1CC[C@@H]1[C@@H]2CC[C@]2(C)C(=O)CC[C@@H]12 [5alpha-ANDROSTAN-3,17-DIONE]	16.2	19.9	6.5	13.8	16.7	80.8	120	83.3	112	114
C[N+]1(C)CCc2cc3c(cc2[C@H]1[C@@H]1OC(=O)c2c1ccc1c2OCO1)OCO3	-13.9	-4.7	-10.3	-4.1	-5.9	99.3	142	110	64.5	109
CC(=O)O[C@@H]1C[C@H]2C(C)(C)C(=O)C=C[C@]2(C)[C@H]2CC[C@]3(C)C(=CC(=O)O[C@H]3c3ccoc3)[C@@]21C	-21.4	8.6	12.2	39.4	-18.1	106	99.1	95.1	128	56.1
C[C@]12CC[C@H](O)C[C@@H]1CC[C@@H]1[C@@H]2CC[C@]2(C)C(=O)CC[C@@H]12	-7.4	1.8	-6.6	16.2	9.6	132	101	78.3	131	106
CC1(C)C(=O)[C@@H]2O[C@@H]2[C@@]2(C)C1C[C@@H](O)[C@]1(C)C2CC[C@@]2(C)[C@H](c3ccoc3)OC(=O)C3OC321 (stereo partly drawn) [1,2alpha-EPOXYDEACETOXYDIHYDROGEDUNIN]	-27.9	-3.3	45.8	1.3	-4.8	88.3	92.2	140	100	116
CC(=O)O[C@H]1C[C@@H](OC(C)=O)C(C)(C)C2C[C@@H](OC(C)=O)[C@]3(C)C(CC[C@@]4(C)[C@H](c5ccoc5)C(=O)[C@H]5O[C@]543)[C@]21C (stereo not given in full)	1.8	2	32.1	-20	2.6	128	118	167	130	140
